At least one structure is not confirmed: it was looked up by name or label, or the drawing left a doubt.
Experiment: Dye duration (lifetime before bleaching)
Format: physicochemical
Settings: printed in hr and m in the cell
Procedure: and wherein the colour indicator comprises a first non-mordant dye having a first colour and being bleachable after a first dye lifetime of 0.5 to 10 minutes in a test solution at 20° C. to 40° C. and pH8.0 to 8.5 containing 0.05 wt % to 0.15 wt % of the dye and 45 wt % to 55 wt % of sodium percarbonate;
a second non-mordant dye having a second colour different from the first colour and bleachable after a second dye lifetime of not less than 24 hours in the test solution; and
an optional third non-mordant dye having a third colour different from the first and second colours and bleachable after a third dye lifetime of not less than 36 hours in the test solution.

O=C1/C(=N\Nc2ccc3c(S(=O)(=O)[O-])cccc3c2S(=O)(=O)[O-])C(S(=O)(=O)[O-])=Cc2cc(S(=O)(=O)[O-])cc(Nc3nc(Cl)nc(Nc4cccc(S(=O)(=O)CCOS(=O)(=O)[O-])c4)n3)c21.[Na+].[Na+].[Na+].[Na+].[Na+] [Reactive Red 195]
DURATION: 15 hr 45 m

Reference: patent US10660338B2, “Sporocidal disinfectant or sanitising composition” (priority 2014, dated 2020)
